Measured values published in US20240218062A1 (DEVELOPMENT CENTER FOR BIOTECHNOLOGY, published 2024).
Results are given in words; binding and its absence hold for the method and conditions named. Some results given as binding are weak or reduced against the parent protein; the word gives no strength.

Biological target: T1, NTSR1 on FaDu cells (human, UniProt P30989 1-418)
T1 construct: whole, on cells; Endogenous NTSR1 on the human FaDu cell line; also called NTSR1 expressing cells, FaDu
Test: flow cytometry on FaDu cells

B1: humanized antibody 7C3 HuHd (antibody, V domains shown)
VH: QVQLVQSGAEVKKPGASVKVSCKASGYTFTSSWIHWVRQAPGQGLEWMGQIRPNSGNTYYNEKFKVRVTMTRDTSTSTVYMELSSLRSEDTAVYYCARYYYGFDYWGQGTLVTVSS
VL: DIQMTQSPSSLSASVGDRVTITCRSSQSIVHSNGNTYLEWYQQKPGKAPKLLIYKVSNRFSGVPSRFSGSGSGTDFTLTISSLQPEDFATYYCFQGSHLPWTFGQGTKVEIK
notes: Full-length antibody from the human Fc vectors
  binding: binds
